One assay addresses T1, GST-TREM2 (77–105) (UniProt Q9NZC2).
T1 sequence: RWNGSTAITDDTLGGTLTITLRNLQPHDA
The assay is described as follows: pull-down; GST pull-down; GST-tagged sTREM2 fragments from cell lysates held on glutathione agarose, washed with NP-40, incubated with lysate overexpressing His-TG2 overnight at 4 °C; only the target purified.

Protein sequences, listed by entry. Tags and fused reporters are not part of them.
UniProt P37802: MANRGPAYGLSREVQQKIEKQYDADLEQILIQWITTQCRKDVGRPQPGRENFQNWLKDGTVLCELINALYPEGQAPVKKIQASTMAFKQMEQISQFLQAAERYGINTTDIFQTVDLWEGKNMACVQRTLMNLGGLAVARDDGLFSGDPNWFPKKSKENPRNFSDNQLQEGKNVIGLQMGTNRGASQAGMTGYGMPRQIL
UniProt Q9WVA4: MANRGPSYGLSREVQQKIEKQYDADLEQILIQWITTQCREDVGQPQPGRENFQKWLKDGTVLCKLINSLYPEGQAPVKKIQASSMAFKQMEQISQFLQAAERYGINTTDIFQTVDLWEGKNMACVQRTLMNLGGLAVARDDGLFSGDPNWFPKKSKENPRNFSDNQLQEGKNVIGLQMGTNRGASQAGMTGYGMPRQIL

The next assay has as its target T2, GST-sTREM2 (1–158) (UniProt Q9NZC2).
T2 sequence: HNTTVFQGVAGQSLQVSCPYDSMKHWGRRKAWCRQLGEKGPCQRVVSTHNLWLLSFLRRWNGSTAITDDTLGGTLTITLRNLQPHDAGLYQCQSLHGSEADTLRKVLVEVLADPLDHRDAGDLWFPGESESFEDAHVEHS
In words: pull-down; GST pull-down; His-TG2 and GST-sTREM2 co-transfected into HEK293 cells.

The target of assay [1] is T3, Fc-tagged human soluble TREM2 (Fc-sTREM2) (human) (UniProt Q9NZC2).
T3 sequence: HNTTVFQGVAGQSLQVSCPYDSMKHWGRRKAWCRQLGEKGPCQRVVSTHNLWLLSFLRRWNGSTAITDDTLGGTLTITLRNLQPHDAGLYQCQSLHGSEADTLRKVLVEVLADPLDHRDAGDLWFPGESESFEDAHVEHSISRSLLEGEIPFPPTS
In words: pull-down; cell membrane proteins of SH-SY5Y cells or primary neurons incubated with purified Fc-sTREM2 or Fc, pulled down with protein A beads, blot for TG2; only the target purified.

These are yes or no findings as the source states them, for the method shown. Binding seen in cells or lysates may run through a third protein. Some binding calls cover weakened binding; strength is not graded here. Sequences can lack the tags named with a protein.

As for His-TG2 (from UniProt P37802 1-199), the binding entry with GST-TREM2 (77–105) and with GST-sTREM2 (1–158) was “binds” in each case.

In the case of “transgelin-2 (TG2), endogenous in SH-SY5Y cells (from UniProt P37802 1-199)”, the binding result in assay [1] is recorded as “binds”. Take “transgelin-2 (TG2), endogenous in mouse primary neurons (from UniProt Q9WVA4 1-199)”: the binding entry in assay [1] was “binds”.

The values above are taken from article PMC10590452.
